Results deposited as PubChem BioAssay AID1259254 (NCATS, 2017).
Here is an unselected part of about 59,000 deposited reagents. In the full data, about 1,550 (2.6%) were called active. 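G2 share is only a proxy for re-replication; each gene was hit by three separate siRNAs, and active genes were retested.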 Unmarked entries are inactive. The numbers tell different reagents against one gene apart. Further read-outs or replicates are left out here. Not stated in the record: the amount of reagent.

Screen: 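Genome-wide screen for genes that prevent DNA re-replication in cancer cells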 (primary screen)
System: human HCT116 colorectal cancer cells
Knock-down reagent: single siRNA against human genes
Time to read-out: 3 days
Measurement: 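Nuclei stained with Hoechst and imaged; cell-cycle phase assigned by DNA content; G2 share scaled per plate, non-targeting siRNA 0%, GMNN siRNA 100%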
Reading the numbers: G2 robust z-score and G2 cells, % of GMNN control: higher = more G2 cells, more excess DNA replication
Call rule: 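Active siRNAs have a G2 robust z of 5 or more median absolute deviations over the median, which in these data means about 38% or higher of GMNN control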

G2 robust z-score | G2 cells, % of GMNN control | gene symbol | reagent
-1.44 | -7.15 | PMS1 (PMS1 homolog 1, mismatch repair system component) | 1
-0.292 | 0.91 | PMS1 (PMS1 homolog 1, mismatch repair system component) | 2
-0.00404 | 2.94 | PMS1 (PMS1 homolog 1, mismatch repair system component) | 3
-0.769 | -2.45 | DAZAP1 (DAZ associated protein 1) | 1
0.158 | 4.08 | DAZAP1 (DAZ associated protein 1) | 2
3.9 | 30.4 | DAZAP1 (DAZ associated protein 1) | 3
-0.486 | -0.451 | HSPA12A (heat shock protein family A (Hsp70) member 12A) | 1
0.81 | 8.66 | HSPA12A (heat shock protein family A (Hsp70) member 12A) | 2
-0.401 | 0.149 | HSPA12A (heat shock protein family A (Hsp70) member 12A) | 3
-0.64 | -1.53 | BAHCC1 (BAH domain and coiled-coil containing 1) | 1
0.598 | 7.17 | BAHCC1 (BAH domain and coiled-coil containing 1) | 2
-0.948 | -3.7 | BAHCC1 (BAH domain and coiled-coil containing 1) | 3
1.33 | 12.4 | PPP1R1B (protein phosphatase 1 regulatory inhibitor subunit 1B) | 1
-1.64 | -8.56 | PPP1R1B (protein phosphatase 1 regulatory inhibitor subunit 1B) | 2
-1.03 | -4.28 | PPP1R1B (protein phosphatase 1 regulatory inhibitor subunit 1B) | 3
-0.307 | 0.807 | CGN (cingulin) | 1
-0.447 | -0.178 | CGN (cingulin) | 2
-0.549 | -0.898 | CGN (cingulin) | 3
-0.289 | 0.937 | XAGE2 (X antigen family member 2) | 1
-0.568 | -1.03 | XAGE2 (X antigen family member 2) | 2
-0.49 | -0.48 | XAGE2 (X antigen family member 2) | 3
-0.637 | -1.51 | SLC35E3 | 1
-0.932 | -3.59 | SLC35E3 | 2
0.409 | 5.84 | SLC35E3 | 3
-0.823 | -2.82 | TOMM40 (translocase of outer mitochondrial membrane 40) | 1
0.139 | 3.95 | TOMM40 (translocase of outer mitochondrial membrane 40) | 2
-0.701 | -1.97 | TOMM40 (translocase of outer mitochondrial membrane 40) | 3
3.48 | 27.5 | SLC1A7 | 1
0.512 | 6.57 | SLC1A7 | 2
1.56 | 14 | SLC1A7 | 3

Taken from above:
Under “G2 robust z-score”, BAHCC1 (BAH domain and coiled-coil containing 1) #3 is entered as -0.948
BAHCC1 (BAH domain and coiled-coil containing 1) #1, G2 robust z-score = -0.64
